# Results of single-concentration screens

By UniProt entry, the sequences of proteins in these tests, tags left out. Residues count along the entry.
UniProt P9WPC5, whole entry: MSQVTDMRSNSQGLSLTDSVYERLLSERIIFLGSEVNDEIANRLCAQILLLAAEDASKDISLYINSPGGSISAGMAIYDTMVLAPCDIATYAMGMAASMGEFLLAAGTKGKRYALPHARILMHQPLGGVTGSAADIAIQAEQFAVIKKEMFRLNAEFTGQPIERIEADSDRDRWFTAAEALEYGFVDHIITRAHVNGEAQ
UniProt P9WPC3, whole entry partner: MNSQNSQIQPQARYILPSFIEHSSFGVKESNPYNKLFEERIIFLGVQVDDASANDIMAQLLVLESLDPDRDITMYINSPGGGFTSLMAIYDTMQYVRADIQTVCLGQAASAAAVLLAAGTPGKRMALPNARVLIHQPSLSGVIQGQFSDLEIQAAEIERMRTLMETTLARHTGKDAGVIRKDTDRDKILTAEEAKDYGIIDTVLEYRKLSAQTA
UniProt Q4DA54, 1-478: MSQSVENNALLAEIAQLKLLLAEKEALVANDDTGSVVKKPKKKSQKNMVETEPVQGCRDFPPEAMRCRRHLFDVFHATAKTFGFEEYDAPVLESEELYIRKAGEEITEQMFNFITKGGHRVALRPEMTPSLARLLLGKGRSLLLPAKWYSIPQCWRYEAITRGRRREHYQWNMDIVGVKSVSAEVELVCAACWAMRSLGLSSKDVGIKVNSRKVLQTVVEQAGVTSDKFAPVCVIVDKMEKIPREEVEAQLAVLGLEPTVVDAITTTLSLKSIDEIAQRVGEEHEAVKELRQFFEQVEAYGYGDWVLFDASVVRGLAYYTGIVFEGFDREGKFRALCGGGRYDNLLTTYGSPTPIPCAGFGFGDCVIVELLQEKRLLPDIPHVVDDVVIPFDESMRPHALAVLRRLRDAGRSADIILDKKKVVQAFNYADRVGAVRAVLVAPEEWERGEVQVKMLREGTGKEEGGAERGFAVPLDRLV
UniProt Q8IDJ8, 1-583: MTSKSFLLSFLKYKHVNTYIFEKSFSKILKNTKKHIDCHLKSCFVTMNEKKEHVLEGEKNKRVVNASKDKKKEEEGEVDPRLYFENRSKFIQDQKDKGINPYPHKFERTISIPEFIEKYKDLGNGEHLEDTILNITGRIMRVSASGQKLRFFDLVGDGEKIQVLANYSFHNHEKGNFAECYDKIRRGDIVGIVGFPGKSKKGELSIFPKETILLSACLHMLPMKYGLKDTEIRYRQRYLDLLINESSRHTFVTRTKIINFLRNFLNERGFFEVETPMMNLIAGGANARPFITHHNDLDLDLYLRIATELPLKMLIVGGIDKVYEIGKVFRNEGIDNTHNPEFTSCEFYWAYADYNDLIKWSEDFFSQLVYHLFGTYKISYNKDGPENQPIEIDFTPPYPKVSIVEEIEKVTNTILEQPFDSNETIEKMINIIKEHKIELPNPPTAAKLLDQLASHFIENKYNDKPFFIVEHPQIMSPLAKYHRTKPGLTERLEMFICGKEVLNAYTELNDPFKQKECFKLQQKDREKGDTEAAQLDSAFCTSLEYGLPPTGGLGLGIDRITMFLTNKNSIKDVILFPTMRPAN
UniProt I6X8D2, whole entry: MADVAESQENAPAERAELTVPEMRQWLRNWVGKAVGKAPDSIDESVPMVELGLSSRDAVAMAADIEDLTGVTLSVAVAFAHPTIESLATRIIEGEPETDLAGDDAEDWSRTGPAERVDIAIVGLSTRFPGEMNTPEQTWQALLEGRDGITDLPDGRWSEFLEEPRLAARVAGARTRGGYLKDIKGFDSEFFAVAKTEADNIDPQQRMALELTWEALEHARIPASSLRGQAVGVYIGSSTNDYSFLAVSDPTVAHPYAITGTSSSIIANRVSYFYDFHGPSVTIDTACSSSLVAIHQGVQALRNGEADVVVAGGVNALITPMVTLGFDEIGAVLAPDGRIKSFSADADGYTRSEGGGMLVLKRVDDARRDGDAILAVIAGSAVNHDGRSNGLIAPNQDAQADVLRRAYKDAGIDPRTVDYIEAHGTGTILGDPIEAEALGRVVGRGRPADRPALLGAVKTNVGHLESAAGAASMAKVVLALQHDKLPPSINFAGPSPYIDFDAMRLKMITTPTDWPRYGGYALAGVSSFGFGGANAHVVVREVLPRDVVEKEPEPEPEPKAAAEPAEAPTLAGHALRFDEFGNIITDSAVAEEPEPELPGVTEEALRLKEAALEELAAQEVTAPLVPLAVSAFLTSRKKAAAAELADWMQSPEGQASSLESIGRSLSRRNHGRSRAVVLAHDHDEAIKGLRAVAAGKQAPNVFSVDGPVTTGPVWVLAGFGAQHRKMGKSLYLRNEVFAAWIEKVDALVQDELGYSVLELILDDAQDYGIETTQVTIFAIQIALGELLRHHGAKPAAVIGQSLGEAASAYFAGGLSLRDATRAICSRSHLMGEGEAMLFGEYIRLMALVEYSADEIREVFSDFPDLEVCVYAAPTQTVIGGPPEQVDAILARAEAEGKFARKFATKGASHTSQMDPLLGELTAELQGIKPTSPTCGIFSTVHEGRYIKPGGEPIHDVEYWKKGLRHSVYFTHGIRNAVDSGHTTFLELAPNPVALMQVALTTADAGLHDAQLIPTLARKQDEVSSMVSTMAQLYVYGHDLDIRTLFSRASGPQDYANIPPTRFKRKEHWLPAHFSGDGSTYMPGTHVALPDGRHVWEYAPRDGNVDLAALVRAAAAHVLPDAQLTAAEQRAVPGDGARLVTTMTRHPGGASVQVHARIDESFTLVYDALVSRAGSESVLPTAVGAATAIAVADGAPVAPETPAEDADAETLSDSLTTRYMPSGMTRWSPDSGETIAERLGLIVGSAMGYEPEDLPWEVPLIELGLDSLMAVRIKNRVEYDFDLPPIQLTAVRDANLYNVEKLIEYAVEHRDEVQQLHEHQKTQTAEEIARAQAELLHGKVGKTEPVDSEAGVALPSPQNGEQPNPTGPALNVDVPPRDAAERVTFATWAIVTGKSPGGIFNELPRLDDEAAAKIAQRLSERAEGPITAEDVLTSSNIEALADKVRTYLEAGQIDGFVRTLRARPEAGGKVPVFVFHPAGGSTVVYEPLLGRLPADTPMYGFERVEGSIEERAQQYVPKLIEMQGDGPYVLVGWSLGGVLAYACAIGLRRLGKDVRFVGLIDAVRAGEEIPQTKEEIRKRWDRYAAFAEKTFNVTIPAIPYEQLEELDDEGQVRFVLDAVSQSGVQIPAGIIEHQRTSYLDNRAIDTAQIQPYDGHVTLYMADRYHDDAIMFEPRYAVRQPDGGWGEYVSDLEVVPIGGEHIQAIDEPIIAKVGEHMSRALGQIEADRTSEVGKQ

Source: ChEMBL document CHEMBL3988442, “University of Dundee, Small-Polar-MMV Screening Library” (2021).

A: 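Protease assay of ClpP1P2, read by the AMC dye that it sets free. Target: ClpP1P2, Mycobacterium tuberculosis (UniProt P9WPC5 and UniProt P9WPC3). Compounds at 50 µM. Higher reads as stronger inhibition, judged from the few compounds that gave an IC50. Most other retested compounds had strongly negative values. Of about 69,000 compounds tested this way, about 10 (0.015%) reached 50% or more in at least one test.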
B: 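Enzyme assay of histidyl-tRNA synthetase; the read-out is not stated. Target: Histidine-tRNA ligase, Trypanosoma cruzi CL Brener (UniProt Q4DA54). Tested at 30 µM. Direction is inferred from retests: higher values go with stronger inhibition. About 69,000 compounds were tested under these conditions; 0.045% (about 31) showed 50% or more at least once.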
C: 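Enzyme assay of the cytosolic lysyl-tRNA synthetase in 384-well plates, read by luminescence. Target: Lysine-tRNA ligase, Plasmodium falciparum 3D7 (UniProt Q8IDJ8). Tested at 30 µM. Higher reads as stronger inhibition, judged from the few compounds that gave an IC50. Size under these conditions: about 69,000 compounds, about 49 of them at 50% or above in at least one test.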
D: 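Polyketide synthase Pks13, Mycobacterium tuberculosis (UniProt I6X8D2). Enzyme assay of the thioesterase domain of polyketide synthase 13; the read-out is not stated. Tested at 30 µM. The record gives no direction; the compounds picked for IC50 retests had high values, so higher reads as stronger inhibition. About 67,000 compounds were tested under these conditions; 0.46% (about 300) showed 50% or more at least once.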

Values are the deposited “Percent Effect”, in %. How 0% and 100% were set is not recorded. Most values in the screen are low, and negative values occur. This is an unselected part of the compounds tested.

Cc1cc(O)cc(C2CCCN2C(=O)c2ccncc2)n1 (configuration not stated) gave A: -11.47%; B: 2.326%; C: 1.659%; D: 6.699%.
CC(NCc1cccnc1)c1ccc(OCC(=O)NC2CC2)cc1 (configuration not stated) gave A: -0.415%; B: 0.3759%; C: -3.799%; D: -6.565%.
CCC1=N[C@@]2(CC[C@@H]3CN(CC4CC4)C[C@@H]32)C(=O)N1CC gave A: -11.28%; B: 2.439%; C: -2.24%; D: 6.512%.
CC(C)c1cc(C(=O)N2CCN(c3ncc4c(n3)CCOC4)CC2)on1 gave A: -3.339%; B: 5.303%; C: -0.1415%; D: -27.95%.
Cc1noc(C)c1C(=O)N1CCC(n2cccn2)CC1 gave A: 5.854%; B: 1.657%; C: -0.7156%; D: -30.08%.
CSc1nc2cc(C)n(CC(=O)Nc3nccs3)c2c(=O)n1CC(C)C gave A: -2.446%; B: 8.293%; C: 5.482%; D: -14.39%.
Cc1nc(C)n(CC2CCCN2Cc2nc3ccccc3nc2C)n1 (configuration not stated) gave A: -5.985%; B: 6.415%; C: 1.663%; D: -5.037%.
Cn1ccc(C(=O)N2C[C@@H]3CCN(c4cnccn4)C[C@@H]3C2)n1 gave A: 0.7643%; B: 4.124%; C: 4.108%; D: -2.856%.
CCN(C)S(=O)(=O)N[C@H]1CN(c2ccc(F)cn2)C[C@@H]1C(C)C gave A: -11.87%; B: 3.704%; C: 4.365%; D: -37.85%.
Cc1nn(-c2ccccc2)c(C)c1CNC(=O)NC1CC1 gave A: 1.071%; B: 10.84%; C: 5.987%; D: 0.1542%.
c1cncc(CN2CCc3ncnc(NCCc4c[nH]cn4)c3CC2)c1 gave A: 8.733%; B: 7.2%; C: 4.698%; D: -30%.
Cc1noc([C@@H]2CC[C@@H]3[C@@H](CCN3S(C)(=O)=O)O2)n1 gave A: -3.071%; B: 12.2%; C: -0.4722%; D: 4.549%.
CCOc1cccc(CNc2ccccc2OC)c1O gave A: 5.773%; B: 4.094%; C: -0.5334%; D: -8.467%.
CO[C@H]1CN(C(=O)c2ccc3c(c2)OCO3)[C@@H]2COC[C@H]12 gave A: 4.643%; B: 4.908%; C: -1.858%; D: 17.73%.
Cc1nc2c(c(=O)n1C)CN(C(=O)C1CCCN(C3CCCC3)C1)C2 (configuration not stated) gave A: -4.834%; B: 5.319%; C: 6.894%; D: -32.05%.
Cc1cc(CN2CCN(C(=O)NC(C)Cn3cccn3)CC2)no1 (configuration not stated) gave A: -29.19%; B: 6.509%; C: 2.328%; D: -7.544%.
CS(=O)(=O)c1ccc(NCCC2CCCO2)c(S(C)(=O)=O)c1 (configuration not stated) gave A: 3.648%; B: 12.98%; C: 2.516%; D: 9.673%.
O[C@@]1(Cn2cnc(Cl)c2Cl)CCCN2CCCC[C@@H]21 gave A: -6.618%; B: 6.468%; C: -0.2096%; D: -9.471%.
Cc1nc(CN(C)C(=O)c2ccc(Cn3cnnn3)cc2)cs1 gave A: 3.387%; B: 1.463%; C: 1.304%; D: -11.35%.
CCc1ccc(O)c(C(=O)NC2CCN(S(=O)(=O)CC)CC2)c1 gave A: 19.43%; B: -1.527%; C: 0.4923%; D: 44.7%.
Cn1cccc(NC(=O)N2CCC(Cc3ccccc3)C2)c1=O (configuration not stated) gave A: -3.726%; B: 10.34%; C: 19.92%; D: -6.959%.
CC(C)C(C(=O)N1CCN(Cc2ccccn2)CC1)n1cncn1 (configuration not stated) gave A: -13.9%; B: 5.83%; C: 6.774%; D: -13.39%.
Cc1ccc(-c2nnc(CN3CC[C@H](CO)[C@@H](O)C3)o2)n1C gave A: 0.6888%; B: 4.255%; C: 0.7444%; D: -12.58%.
COc1cc2ncn(Cc3ncc[nH]3)c(=O)c2cc1OC gave A: 2.286%; B: 14.43%; C: 3.583%; D: -13.13%.
COc1cc(C(=O)NS(=O)(=O)c2cncc(Br)c2)cc(Cl)c1OC gave A: -11.27%; B: 1.026%; C: -1.718%; D: -10.27%.
CC(c1ccco1)N(C(=O)Cn1nc2n(c1=O)CCCCC2)C1CC1 (configuration not stated) gave A: -7.622%; B: 8.911%; C: -8.158%; D: 4.553%.

For reference, 2 entries once more:

compound,A,B,C,D
Cc1cc(CN2CCN(C(=O)NC(C)Cn3cccn3)CC2)no1 (configuration not stated),-29.19,6.509,2.328,-7.544
Cn1cccc(NC(=O)N2CCC(Cc3ccccc3)C2)c1=O (configuration not stated),-3.726,10.34,19.92,-6.959